The values below come from PMC8080530, “Glucocorticoid receptor Thr524 phosphorylation by MINK1 induces interactions with 14-3-3 protein regulators” (The Journal of Biological Chemistry, 2021).

Sequences of proteins named here, by UniProt entry; tags and fusion partners are left off. A change or cut given only in a name is not applied to a line headed by its entry.
UniProt P04150: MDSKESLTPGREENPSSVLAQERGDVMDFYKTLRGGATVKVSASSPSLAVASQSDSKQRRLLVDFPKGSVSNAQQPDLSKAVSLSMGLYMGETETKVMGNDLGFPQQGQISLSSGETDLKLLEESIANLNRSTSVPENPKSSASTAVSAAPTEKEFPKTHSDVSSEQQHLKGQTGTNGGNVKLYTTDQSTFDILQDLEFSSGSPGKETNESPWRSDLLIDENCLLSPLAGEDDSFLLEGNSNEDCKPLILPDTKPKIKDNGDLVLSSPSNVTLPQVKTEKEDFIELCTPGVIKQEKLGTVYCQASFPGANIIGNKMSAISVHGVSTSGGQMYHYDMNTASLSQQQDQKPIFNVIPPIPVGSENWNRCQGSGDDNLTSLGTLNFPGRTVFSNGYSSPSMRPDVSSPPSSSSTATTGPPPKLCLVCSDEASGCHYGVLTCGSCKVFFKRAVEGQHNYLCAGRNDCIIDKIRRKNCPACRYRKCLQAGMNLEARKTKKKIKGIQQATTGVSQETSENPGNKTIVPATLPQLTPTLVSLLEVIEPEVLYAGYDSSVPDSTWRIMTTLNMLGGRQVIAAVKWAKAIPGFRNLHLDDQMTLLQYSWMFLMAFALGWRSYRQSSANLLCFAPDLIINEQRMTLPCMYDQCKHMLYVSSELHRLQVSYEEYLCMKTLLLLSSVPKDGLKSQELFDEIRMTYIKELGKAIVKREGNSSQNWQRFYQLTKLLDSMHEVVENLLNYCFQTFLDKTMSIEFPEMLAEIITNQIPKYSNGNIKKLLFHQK
UniProt P29311: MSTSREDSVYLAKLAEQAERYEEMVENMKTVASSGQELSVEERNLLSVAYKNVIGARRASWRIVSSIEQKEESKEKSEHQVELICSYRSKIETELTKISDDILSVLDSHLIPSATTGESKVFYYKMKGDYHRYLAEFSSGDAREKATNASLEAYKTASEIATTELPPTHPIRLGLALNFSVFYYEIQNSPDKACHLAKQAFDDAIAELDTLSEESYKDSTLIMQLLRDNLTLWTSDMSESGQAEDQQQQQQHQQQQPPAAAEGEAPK

These are yes or no findings as the source states them, for the method shown. Some results given as binding are weak or reduced against the parent protein; the word gives no strength.

Experiment [1] concerns the target GFP-GR, full-length WT glucocorticoid receptor (human) (UniProt P04150). The experiment is described as follows: condition: only cells without further stimulation (no calyculin A); far-Western, overlay or dot blot; GFP-Trap immunoprecipitates of U2OS cells transfected with GFP-GR or GFP-GR and FLAG-MINK1, without further stimulation; probed with BMH1-BMH2-digoxigenin; only the binder purified.

Experiment [2] shares this target. The experiment is described as follows: far-Western, overlay or dot blot; GFP-Trap immunoprecipitates of transfected U2OS or HEK293 cells stimulated with forskolin or calyculin A (with or without co-transfected FLAG-MINK1), resolved on a gel and held on a PVDF membrane; probed with BMH1-BMH2-digoxigenin; anti-DIG detection; only the binder purified.

Regarding “BMH1-BMH2-digoxigenin (the two recombinant yeast isoforms of 14-3-3 tagged with digoxigenin) (from UniProt P29311 1-267; P34730 1-273) (complex)”, the binding entry in experiment [1] is given as “no binding”; in experiment [2], “binds”.
